We go through 35 molecules from PubChem BioAssay AID2685 (National Center for Advancing Translational Sciences (NCATS), 2010).

The test can be described thus: qHTS Assay for Lipid Storage Modulators in Drosophila S3 Cells.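 On cell number change: cells counted by Cell Tracker Red CMTPX staining in the red channel.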 The following applies: BODIPY lipid droplet fluorescence, 18-24 h; for cell number change: measured here: cell count max response, cells fed with added oleic acid. The method in brief: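 Laser-scanning cytometry quantifies lipid droplet accumulation (500–530 nm total intensity; droplet/cell object ratio) in oleic acid-fed (400 uM added) Drosophila S3 cells treated with a concentration series. 20 uM Triacsin C defined 100% inhibition.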

Setting [1] is: measured here: cell number channel AC50, cells fed with added oleic acid.
[2] abbreviates: measured here: lipid fluorescence (Fed channel) AC50, cells fed with added oleic acid.

This is one part of the list. The main result of the screen is listed elsewhere. These columns were measured beside it and carry no call. Compounds called inactive in the main read-out are mostly missing here. Words in brackets tell the shape of the fitted curve; partial curves, single points and poor fits give uncertain potencies.

For orientation: AC50 means the concentration at which the activity in the assay is half-maximal. On to `O=C1c2ccccc2C(=Nc2ccccc2)C1c1cccc(Br)c1` (stereo unspecified), for which the cell number change was -34.8%. Also, under setting [1], the concentration at half-maximal activity (AC50) is 18400 nM [falling, single point]. Further, the half-maximal activity concentration (AC50) under setting [2] is 20600 nM [falling, single point].
Take `O=C1NC(c2ccccc2OC(F)F)Oc2ccccc21` (stereo unspecified): the AC50 under setting [1] is 820 nM [rising, single point] and the AC50 under setting [2] is 580 nM [rising, full curve, poor fit].
On to `CC1CCCCC12NC(=O)N(CC(=O)N1CCN(S(=O)(=O)c3ccc4c(c3)CCC4)CC1)C2=O` (stereo unspecified), for which the cell number change came to 5.22%.
`Cc1ccc(-n2c(Cc3noc4ccccc34)n[nH]c2=S)cc1`: the cell number change is 15.4%. Also, the AC50 under setting [2] was 1460 nM [rising, full curve, poor fit].
Turning to `CC(=O)Nc1ccc(NC(=O)C(C)OC(=O)C2CCCCC2)cc1` (stereo unspecified), the cell number change was -58.4%. For the same molecule, under setting [1], the concentration at half-maximal activity (AC50) was 29100 nM [falling, single point]. In addition, the concentration at half-maximal activity (AC50) under setting [2] was 2060 nM [falling, full curve].
In the case of `Cc1ccc(S(=O)(=O)N2CCC(=O)N(CCOC(=O)Nc3cccc(Cl)c3)CC2)cc1`, the cell number change was 8.84%. The AC50 under setting [2] is 411 nM [rising, full curve, poor fit].
Turning to `CCC1=NNC(=O)C(CC(=O)Nc2ccccc2)c2cc(OC)c(OC)cc21` (stereo unspecified), the cell number change turned out to be 30.1%. The AC50 under setting [1] was 20600 nM [rising, single point]. The AC50 under setting [2] is 10300 nM [rising, partial curve, poor fit].
As to `O=C(Nc1ccccc1N1CCOCC1)c1cc(-c2ccco2)nc2ccccc12`, the cell number change stood at 15.7%. For the same molecule, under setting [1], the half-maximal activity concentration (AC50) was 461 nM [rising, full curve, poor fit]. Also, the concentration at half-maximal activity (AC50) under setting [2] is 1460 nM [rising, partial curve].
For `C(=N\N1CCN(c2ccccn2)CC1)/c1ccccn1`, the cell number change is -57.4%. The concentration at half-maximal activity (AC50) under setting [1] was 29100 nM [falling, single point]. Also, under setting [2], the AC50 was 29100 nM [falling, single point].
On to `Cc1ccc(F)cc1NC(=O)c1cnccn1`, for which the half-maximal activity concentration (AC50) under setting [1] is 6510 nM [rising, single point] and the half-maximal activity concentration (AC50) under setting [2] is 5800 nM [rising, partial curve, poor fit].
In the case of `O=C1C=C(c2ccc(F)nc2)C[C@@H](c2ccc3c(c2)OCO3)C1`, the cell number change was found to be 4.66%. For the same molecule, the AC50 under setting [2] was 23100 nM [rising, single point].
On to `CCOC(=O)c1c(NC(=O)C2=COCCO2)sc2c1CCN(C(=O)OC)C2`, for which the cell number change is 29.1%. For the same molecule, under setting [1], the AC50 is 1030 nM [rising, full curve, poor fit]. Under setting [2], the AC50 was 1460 nM [rising, full curve].
In the case of `CNc1ncc(C(=O)c2ccc(Br)cc2)s1`, the cell number change was found to be 5.69%.
Regarding `Nc1nc(CSc2nc3ccccc3[nH]2)cs1`, the cell number change amounted to 33.6%. Under setting [1], the AC50 was 29100 nM [rising, single point]. Under setting [2], the AC50 is 651 nM [rising, full curve, poor fit].
`COc1ccccc1N1CCN(C(=O)c2sc3nc(C)nc(N4CCN(c5ccccn5)CC4)c3c2C)CC1`: the cell number change worked out at 20.5%.
Turning to `COC(=O)CC1C(=O)NCCN1C(=O)c1ccc(S(=O)(=O)N2CCOCC2)cc1` (stereo unspecified), the cell number change was -29.6%. Moreover, the AC50 under setting [1] is 130 nM [falling, full curve]. In addition, under setting [2], the concentration at half-maximal activity (AC50) is 146 nM [falling, full curve].
With `CS(=O)(=O)N(CC(=O)NCCSC1CCCCC1)c1ccccc1`, the cell number change was 7.54%. In addition, the half-maximal activity concentration (AC50) under setting [1] was 6510 nM [falling, single point].
Turning to `O=C(/C=C/c1ccccc1Cl)N1CCOCC1`, the cell number change was -0.985%. For the same molecule, the half-maximal activity concentration (AC50) under setting [2] is 820 nM [rising, full curve].
For the molecule `O=C(CN(Cc1cccs1)C(=O)CNC(=O)c1ccco1)NC1CCCCC1`, the cell number change came to 2.15%. Besides, the AC50 under setting [2] was 29100 nM [rising, single point].
On to `Cc1ccc(-n2c(=O)[nH]c3ncccc3c2=O)cc1`, for which the cell number change is 26.7%. The half-maximal activity concentration (AC50) under setting [2] was 6.51 nM [rising, full curve, poor fit].
Turning to `Clc1ccc(Nc2ncnc3c2cnn3-c2ccccc2)cc1`, the cell number change was -15.1%. Besides, under setting [1], the AC50 is 164 nM [falling, partial curve, poor fit]. Besides, the half-maximal activity concentration (AC50) under setting [2] was 6510 nM [rising, single point].
Consider `CN1/C(=C/c2cc[n+](C)c3ccccc23)C=Cc2ccccc21`, for which the cell number change was -49.5%. The half-maximal activity concentration (AC50) under setting [1] was 1840 nM [falling, partial curve, poor fit]. The AC50 under setting [2] is 1840 nM [falling, partial curve].
With `Clc1ccc(-c2nnc3n2CCCS3)cc1`, the cell number change is -27.9%. Also, the concentration at half-maximal activity (AC50) under setting [2] is 32600 nM [falling, single point].
For `CCN(CC)S(=O)(=O)c1ccc(NS(=O)(=O)c2ccc(F)cc2)cc1`, the cell number change was -44.9%. Moreover, the concentration at half-maximal activity (AC50) under setting [1] is 29100 nM [falling, single point]. Under setting [2], the concentration at half-maximal activity (AC50) was 20600 nM [falling, single point].
In the case of `Cc1ccc2cc(CN(CC(C)C)S(=O)(=O)c3ccccc3)c(=O)[nH]c2c1`, the cell number change is -14.4%.
As to `COc1ccc(N2C(=O)N[C@@H](Cc3ccccc3)C2=O)cc1OC`, the cell number change worked out at 40.1%. In addition, the half-maximal activity concentration (AC50) under setting [1] was 4610 nM [rising, full curve].
In the case of `CCOC(=O)c1c(NC(=O)CC)sc(C(C)=O)c1C`, the cell number change is -9.28%. Also, the concentration at half-maximal activity (AC50) under setting [2] is 920 nM [rising, full curve].
For `CN1C(=S)SC(/[N+]([O-])=C/c2cccnc2)C1(C)C` (stereo unspecified), the cell number change was -3.86%. Further, the half-maximal activity concentration (AC50) under setting [2] is 164 nM [falling, full curve, poor fit].
For the molecule `CCOc1cccc(-c2nn(-c3ccccc3)cc2/C=C(/C#N)C(=O)NCCCn2ccnc2)c1`, the cell number change is -79.3%. Moreover, under setting [1], the AC50 is 20600 nM [falling, single point]. In addition, the AC50 under setting [2] is 130 nM [falling, full curve, poor fit].
Take `CC(C)(C)C(=O)Nc1cc(NC(=O)C(C)(C)C)cc(C(=O)NNC(=O)c2ccncc2)c1`: the cell number change stood at 30.1%. For the same molecule, the concentration at half-maximal activity (AC50) under setting [2] is 580 nM [falling, single point].
With `COC(=O)c1ccc(Cn2nnc3c(=O)[nH]c(C4CCCN(S(=O)(=O)c5ccccc5)C4)nc32)cc1` (stereo unspecified), the cell number change was -12.7%.
For the molecule `Cc1cc(OCC(=O)NCCCN(C)C)cc(C)c1Br`, the AC50 under setting [2] was 580 nM [rising, single point].
`CCc1nccn1CCC(=O)NC1CCCc2c1cnn2-c1ccc(F)cc1F` (stereo unspecified): the cell number change amounted to 13%. Also, under setting [2], the AC50 is 4110 nM [rising, single point].
As for `COCc1cc(C)nc(OCC(=O)N/N=C/c2cc(C)n(-c3c(C)cccc3C)c2C)c1C#N`, the cell number change was -15.2%. For the same molecule, the AC50 under setting [2] is 10300 nM [rising, partial curve].
`Cc1ccc(S(=O)(=O)N2CCN(c3ccc(N4CCOCC4)nn3)CC2)cc1[N+](=O)[O-]`: the cell number change was found to be 34%. Moreover, the half-maximal activity concentration (AC50) under setting [1] was 1640 nM [rising, full curve, poor fit].
